Sequences of proteins named here, by UniProt entry; tags and fusion partners are left off.
UniProt Q9NZV8: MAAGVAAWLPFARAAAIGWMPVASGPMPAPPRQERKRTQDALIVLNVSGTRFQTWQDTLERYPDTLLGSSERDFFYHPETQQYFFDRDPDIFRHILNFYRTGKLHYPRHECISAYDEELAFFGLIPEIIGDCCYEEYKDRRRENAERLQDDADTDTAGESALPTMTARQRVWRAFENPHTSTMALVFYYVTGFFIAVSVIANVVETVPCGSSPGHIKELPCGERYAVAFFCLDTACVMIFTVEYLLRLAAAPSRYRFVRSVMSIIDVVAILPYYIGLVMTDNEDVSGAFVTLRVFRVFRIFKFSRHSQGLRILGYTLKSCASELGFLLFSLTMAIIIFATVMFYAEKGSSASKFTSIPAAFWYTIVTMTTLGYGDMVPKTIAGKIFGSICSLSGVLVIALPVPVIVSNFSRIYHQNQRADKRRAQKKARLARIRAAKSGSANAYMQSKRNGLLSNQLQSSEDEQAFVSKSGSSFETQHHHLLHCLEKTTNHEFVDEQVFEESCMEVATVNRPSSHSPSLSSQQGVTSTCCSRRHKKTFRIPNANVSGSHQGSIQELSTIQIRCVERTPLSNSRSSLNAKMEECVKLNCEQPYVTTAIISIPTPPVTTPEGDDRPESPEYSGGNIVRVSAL

According to article PMC9788671:

B1: Clasp2 (protein, UniProt Q99JD4 1-1286)
chain: MRRLICKRICDYKSFDDEESVDGNRPSSAASAFKVPAPKTPGNPVNSARKPGSAGGPKAGGTSKEGGAGAVDEDDFIKAFTDVPSIQIYSSRELEETLNKIREILSDDKHDWDQRANALKKIRSLLVAGAAQYDCFFQHLRLLDGALKLSAKDLRSQVVREACITVAHLSTVLGNKFDHGAEAIVPTLFNLVPNSAKVMATSGCAAIRFIIRHTHVPRLIPLITSNCTSKSVPVRRRSFEFLDLLLQEWQTHSLERHAAVLVETIKKGIHDADAEARVEARKTYMGLRNHFPGEAETLYNSLEPSYQKSLQTYLKSSGSVASLPQSDRSSSSSQESLNRPFSSKWSTANPSAVAGRVSVGGSKASPLPGSLQRSRSDIDVNAAAGAKAHHAAGQAVRSGRLGAGALNPGSYASLEDTSDKMDGTASEDGRVRAKLSTPLVAVGNAKTDSRGRSRTKMVSQSQPGSRSGSPGRVLTTTALSTVSSGAQRILVNSASAQKRSKIPRSQGCSREASPSRLSVARSSRIPRPSVSQGCSREASRESSRDTSPVRSFQPLGPGYGMSQSSRLSSSVSAMRVLNTGSDVEEAVADALLLGDIRTKKKPARRRYESYGMHSDDDANSDASSACSERSYSSRNGSIPTYMRQTEDVAEVLNRCASSNWSERKEGLLGLQNLLKNQRTLSRVELKRLCEIFTRMFADPHGKVFSMFLETLVDFIQVHKDDLQDWLFVLLTQLLKKMGADLLGSVQAKVQKALDVTRESFPNDLQFNILMRFTVDQTQTPSLKVKVAILKYIETLAKQMDPGDFINSSETRLAVSRVITWTTEPKSSDVRKAAQSVLISLFELNTPEFTMLLGALPKTFQDGATKLLHNHLRNTGNGTQSSMGSPLTRPTPRSPANWSSPLTSPTNTSQNTLSPSAFDYDTENMNSEDIYSSLRGVTEAIQNFSFRSQEDMSEPLKRDPKKEDGDTVCSGPGMSDPRAGGDAPDSSQPALDNKASLLHSVPLHSSPRSRDYNPYNYSDSISPFNKSALKEAMFDDDADQFPDDLSLDHSDLVAELLKELSNHNERIEERKIALYELMKLTQEESFSVWDEHFKTILLLLLETLGDKEPTIRALALKVLKEILRHQPARFKNYAELTVMKTLEAHKDPHKEVVRSAEEAASVLATSISPEQCIKVLCPIIQTADYPINLAAIKMQTKVIERVSKETLNLLLPEIMPGLIQGYDNSESSVRKACVFCLVAVHAVIGDELKPHLSQLTGSKMKLLNLYIKRAQTGSAGADPTTDVSGQS
B2: Pc (protein, UniProt P52873 21-1178)
chain: TAPVASPNVRRLEYKPIKKVMVANRGEIAIRVFRACTELGIRTVAVYSEQDTGQMHRQKADEAYLIGRGLAPVQAYLHIPDIIKVAKENGVDAVHPGYGFLSERADFAQACQDAGVRFIGPSPEVVRKMGDKVEARAIAIAAGVPVVPGTNSPINSLHEAHEFSNTYGFPIIFKAAYGGGGRGMRVVHSYEELEENYTRAYSEALAAFGNGALFVEKFIEKPRHIEVQILGDQYGNILHLYERDCSIQRRHQKVVEIAPATHLDPQLRSRLTSDSVKLAKQVGYENAGTVEFLVDKHGKHYFIEVNSRLQVEHTVTEEITDVDLVHAQIHVSEGRSLPDLGLRQENIRINGCAIQCRVTTEDPARSFQPDTGRIEVFRSGEGMGIRLDNASAFQGAVISPHYDSLLVKVIAHGKDHPTAATKMSRALAEFRVRGVKTNIPFLQNVLNNQQFLAGIVDTQFIDENPELFQLRPAQNRAQKLLHYLGHVMVNGPTTPIPVKVSPSPVDPIVPVVPIGPPPAGFRDILLREGPEGFARAVRNHQGLLLMDTTFRDAHQSLLATRVRTHDLKKIAPYVAHNFNNLFSIENWGGATFDVAMRFLYECPWRRLQELRELIPNIPFQMLLRGANAVGYTNYPDNVVFKFCEVAKENGMDVFRIFDSLNYLPNMLLGMEAAGSAGGVVEAAISYTGDVADPSRTKYSLEYYMGLAEELVRAGTHILCIKDMAGLLKPAACTMLVSSLRDRFPDLPLHIHTHDTSGSGVAAMLACAQAGADVVDVAVDSMSGMTSQPSMGALVACTKGTPLDTEVPLERVFDYSEYWEGARGLYAAFDCTATMKSGNSDVYENEIPGGQYTNLHFQAHSMGLGSKFKEVKKAYVEANQMLGDLIKVTPSSKIVGDLAQFMVQNGLSRAEAEAQAEELSFPRSVVEFLQGYIGIPHGGFPEPFRSKVLKDLPRIEGRPGASLPPLNLKELEKDLIDRHGEEVTPEDVLSAAMYPDVFAQFKDFTATFGPLDSLNTRLFLQGPKIAEEFEVELERGKTLHIKALAVSDLNRAGQRQVFFELNGQLRSILVKDTQAMKEMHFHPKALKDVKGQIGAPMPGKVIDVKVAAGAKVVKGQPLCVLSAMKMETVVTSPMEGTIRKVHVTKDMTLEGDDLILEIE
B3: Cand1 (protein, UniProt P97536 1-1230)
chain: MASASYHISNLLEKMTSSDKDFRFMATNDLMTELQKDSIKLDDDSERKVVKMILKLLEDKNGEVQNLAVKCLGPLVSKVKEYQVETIVDTLCTNMLSDKEQLRDISSIGLKTVIGELPPASSGSALAANVCKKITGRLTSAIAKQEDVSVQLEALDIMADMLSRQGGLLVNFHPSILTCLLPQLTSPRLAVRKRTIIALGHLVMSCGNIVFVDLIEHLLSELSKNDSMSTTRTYIQCIAAISRQAGHRIGEYLEKIIPLVVKFCNVDDDELREYCIQAFESFVRRCPKEVYPHVSTIINICLKYLTYDPNYNYDDEDEDENAMDADGGDDDDQGSDDEYSDDDDMSWKVRRAAAKCLDAVVSTRHEMLPEFYKTVSPALISRFKEREENVKADVFHAYLSLLKQTRPVQSWLCDPDAMEQGETPLTMLQSQVPNIVKALHKQMKEKSVKTRQCCFNMLTELVNVLPGALTQHIPVLVPGIIFSLNDKSSSSNLKIDALSCLYVILCNHSPQVFHPHVQALVPPVVACVGDPFYKITSEALLVTQQLVKVIRPLDQPSSFDATPYIKDLFTCTIKRLKAADIDQEVKERAISCMGQIICNLGDNLGPDLSNTLQIFLERLKNEITRLTTVKALTLIAGSPLKIDLRPVLGEGVPILASFLRKNQRALKLGTLSALDILIKNYSDSLTAAMIDAVLDELPPLISESDMHVSQMAISFLTTLAKVYPSSLSKISGSILNELIGLVRSPLLQGGALSAMLDFFQALVVTGTNNLGYMDLLRMLTGPVYSQSTALTHKQSYYSIAKCVAALTRACPKEGPAVVGQFIQDVKNSRSTDSIRLLALLSLGEVGHHIDLSGQLELKSVILEAFSSPSEEVKSAASYALGSISVGNLPEYLPFVLQEITSQPKRQYLLLHSLKEIISSASVVGLKPYVENIWALLLKHCECAEEGTRNVVAECLGKLTLIDPETLLPRLKGYLISGSSYARSSVVTAVKFTISDHPQPIDPLLKNCIGDFLKTLEDPDLNVRRVALVTFNSAAHNKPSLIRDLLDSVLPHLYNETKVRKELIREVEMGPFKHTVDDGLDIRKAAFECMYTLLDSCLDRLDIFEFLNHVEDGLKDHYDIKMLTFLMLVRLSTLCPSAVLQRLDRLVEPLRATCTTKVKANSVKQEFEKQDELKRSAMRAVAALLTIPEAEKSPLMSEFQSQISSNPELAAIFESIQKDSSSTNLESMDTS
B4: Matr3 (protein, UniProt P43244 1-845)
chain: MSKSFQQSSLGRDSQGHGRDLSAAGIGLLAAATQSLSMPASLGRMNQGTARLASLMNLGMSSSLNQQGAHSALSSASTSSHNLQSIFNIGSRGPLPLSSQHRGDTDQASNILASFGLSARDLDELSRYPEDKITPENLPQILLQLKRRRTEEGPTLSYGRDGRSATREPPYRVPRDDWEEKRHFRRDSFDDRGPSLNPVLDYDHGSRSQESGYYDRMDYEDDRLRDGERCRDDSFFGETSHNYHKFDSEYERMGRGPGPLQERSLFEKKRGAPPSSNIEDFHGLLPKGYPHLCSICDLPVHSNKEWSQHINGASHSRRCQLLLEIYPEWNPDNDTGHTMGDPFMLQQSTNPAPGILGPPPPSFHLGGPAVGPRGNLGAGNGNLQGPRHMQKGRVETSRVVHIMDFQRGKNLRYQLLQLVEPFGVISNHLILNKINEAFIEMATTEDAQAAVDYYTTTPALVFGKPVRVHLSQKYKRIKKPEGKPDEKFDQKQELGRVIHLSNLPHSGYSDSAVLKLAEPYGKIKNYILMRMKSQAFIEMETREDAMAMVDHCLKKALWFQGRCVKVDLSEKYKKLVLRIPNRGIDLLKKDKSRKRSYSPDGKESPSDKKSKTDGAQKTENPAEGKEQEEKSGEDGEKDTKDDQTEQEPSMLLESEDELLVDEEEAAALIESGSSVGDETDLANLGDVSSDGKKEPSDKAVKKDASATSKKKLKKVDKIEELDQENEAALENGIKNEENTEPGAESAENADDPNKDASDNSDGQNDENKEDYTIPDEYRIGPYQPNVPGGIDYVIPKTGFYCKLCSLFYTNEEVAKNTHCSSLPHYQKLKKFLNKLAEERRQKKES
B5: Lppr4 (protein, UniProt Q7TMB7 1-766)
chain: MQRAGSSGARGECDISGTGRLRLEQAARLGGRAVHTSPTGGLGARQVAGMSAKERPKGKVIKDSVTLLPCFYFVELPILASSVVSLYFLELTDVFKPVHSGFSCYDRSLSMPYIEPTQEAIPFLMLLSLAFAGPAITIMVGEGILYCCLSKRRNGAGLEPNINAGGCNFNSFLRRAVRFVGVHVVGLCSTALITDIIQLATGYQAPYFLTVCKPMYTSLEGSCKENSYIVEEICSGSDLTVINNGKKSFPSQHATLAAFAAVYVSMYFNSTLTDSSKLLKPLLVFTFIICGIICGLTRITQYKNHPVDVYCGFLIGGGIALYLGLYAVGNFLPSEDSMLQHRDALRSLTDLNQDPSRVLSAKNGSSGDGIAHTEGILNRNHRDASSLTNLKRANADVEIITPRSPMGKESMVTFSNTLPRANTPSVEDPVRRNASIHASMDSARSKQLLTQWKSKNESRKMSLQVMDSEPEGQSPPRSIEMRSSSEPSRVGVNGDHHVPGNQYLKIQPGTVPGCNNSMPAGPRVSIQSRPGSSQLVHIPEETQENISTSPKSSSARAKWLKAAEKTVACNRGNNQPRIMQVIAMSKQQGVLQSSPKNAEGSTVTCTGSIRYKTLTDHEPSGIVRVEAHPENNRPIIQIPSSTEGEGSGSWKWKAPEKSSLRQTYELNDLNRDSESCESLKDSFGSGDRKRKHIDSNEHHHHGITTIRVTPVEGSEIGSETLSVSSSRDSTLRRKGNIILIPERSNSPENTRNIFYKGTSPTRPYKD

Assays:
[1] = molecular target: TAP-Kv4.2 (human) (UniProt Q9NZV8); assay: affinity purification with mass spectrometry; TAP-Kv4.2 expressed by lentivirus in rat hippocampal neurons, harvested at DIV14; weak lysis buffer of the kit (0.1% NP-40); streptavidin resin, then calmodulin resin; gel cut into high and low molecular weight fragments; no MS of the control sample
[2] = molecular target: TAP-Kv4.2 (human) (UniProt Q9NZV8); assay: affinity purification with mass spectrometry; TAP-Kv4.2 expressed by lentivirus in rat hippocampal neurons, harvested at DIV14; strong lysis buffer (1% Triton X-100, 0.5% deoxycholate in PBS, pH 7.4); streptavidin resin, then calmodulin resin; gel cut into high and low molecular weight fragments; no MS of the control sample

| Binder | binding [1] | binding [2] |
| --- | --- | --- |
| B1 | binds | binds |
| B2 | binds | binds |
| B3 | binds | binds |
| B4 | binds | binds |
| B5 | binds | binds |

These are yes or no findings as the source states them, for the method shown. In cells and extracts the contact can be indirect. These calls come from enrichment with a bait or labelling near it, and not all partners need be listed.
